Reference: PubChem BioAssay AID493014 (National Center for Advancing Translational Sciences (NCATS), 2011)
This is one part of the list. The main result of the screen is listed elsewhere. These columns were measured beside it and carry no call. The list favours compounds with an active or inconclusive main result. Words in brackets tell the shape of the fitted curve; partial curves, single points and poor fits give uncertain potencies.

Assay: qHTS Assay to Find Inhibitors of Chronic Active B-Cell Receptor Signaling
Settings: ABC-DLBCL IkBa-CBG/CBR reporter, luminescence ratio (green luciferase fused to IkBa over red control in TMD8 lymphoma cells), 4 h
How it was run: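 Compounds up to 46 uM were incubated four hours with TMD8 cells whose green CBG68 luciferase is fused to IkappaBalpha; red CBR luminescence normalised the signal, and concentration-effect curves were fitted to fusion, red and ratio data.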

[1] = measured here: CBR red luminescence, cell number
[2] = measured here: IkBa-CBG green luminescence

Question: For `Cc1cc2c(=O)oc(-c3ccccc3Br)nc2s1`, which AC50 [1] is on record?
Answer: Its AC50 is 17.8 µM [falling, single point].

Question: For `N#C/C(=N\O)c1nc(-c2ccccc2)cs1`, which AC50 [1] is on record?
Answer: Its AC50 is 3.98 µM [rising, single point].

Question: With `O=C(NCCO)c1cc(-c2cc(C(=O)NCCO)c3ccccc3n2)nc2ccccc12` as the compound, how does the AC50 [1] read?
Answer: Its AC50 is 0.562 µM [rising, partial curve, poor fit].

Question: With `Cc1ccnc(NC(=O)c2ccc(COc3ccc(Cl)cc3)o2)c1` as the compound, how does the AC50 [1] read?
Answer: The AC50 was 29.1 µM [falling, single point].

Question: Which AC50 [1] does the source give for `S=C(Nc1ccccc1)N1CCN(C(=S)c2ccccc2)CC1` here?
Answer: The AC50 was 35.5 µM [falling, single point].

Question: Which AC50 [1] does the source give for `O=C(c1ccccc1Cc1ccccc1)N1CCN(S(=O)(=O)c2ccccc2Br)CC1` here?
Answer: The AC50 was 20.6 µM [falling, single point].

Question: With `CCOC(=O)c1c(NC(=O)Cn2ccsc2=N)sc(C)c1C` as the compound, how does the AC50 [1] read?
Answer: Its AC50 is 14.1 µM [falling, single point].

Question: Which AC50 [1] does the source give for `O=C(CCCOc1ccc(Cl)cc1)N1CCCCC1` here?
Answer: The AC50 was 3.26 µM [rising, full curve, poor fit].

Question: For `O=C(/C=C/Nc1ccccc1F)c1ccc(Br)cc1`, which AC50 [1] is on record?
Answer: Its AC50 is 5.8 µM [falling, full curve].

Question: Which AC50 [1] does the source give for `CCC(=O)Nc1nnc(SCc2ccc(F)cc2)s1` here?
Answer: The AC50 was 1.46 µM [rising, full curve, poor fit].

Question: For `Cc1noc(C)c1C(=O)Nc1nc2ccc(F)cc2s1`, which AC50 [1] is on record?
Answer: Its AC50 is 5.8 µM [falling, partial curve, poor fit].

Question: For `O=C(NC(=S)N1CCCCC1CO)C12CC3CC(CC(C3)C1)C2` (stereo not given), which AC50 [1] is on record?
Answer: Its AC50 is 0.112 µM [rising, full curve, poor fit].

Question: For `CN(c1ccc(O)cc1)S(=O)(=O)c1ccc2ccccc2c1`, which AC50 [1] is on record?
Answer: The AC50 was 11.2 µM [falling, partial curve, poor fit].

Question: Which AC50 [1] does the source give for `Cc1ccc(C=Nc2ccc(N(C)C)cc2)o1` here?
Answer: Its AC50 is 2.24 µM [falling, full curve, poor fit].

Question: For `Cc1ccc(-c2csc3ncn(/N=C/N(C)C)c(=O)c23)o1`, which AC50 [1] is on record?
Answer: The AC50 was 8.2 µM [falling, partial curve, poor fit].

Question: With `CC(=O)Nc1cccc(C(=O)OC(C)C(=O)NC2CCCc3ccccc32)c1` (stereo not given) as the compound, how does the AC50 [1] read?
Answer: Its AC50 is 3.98 µM [falling, single point].

Question: What about the AC50 [2] of the same compound?
Answer: The AC50 was 6.31 µM [rising, partial curve, poor fit].

Question: For `O=C(COc1cccc2ccccc12)NNC(=O)[C@@H]1CCCC[C@@H]1C(=O)O`, which AC50 [1] is on record?
Answer: The AC50 was 29.1 µM [falling, single point].

Question: With `CC(=O)c1c(C)[nH]c(C(=O)OCc2csc(CC(=O)Nc3ccccc3C)n2)c1C` as the compound, how does the AC50 [1] read?
Answer: Its AC50 is 1.16 µM [falling, full curve, poor fit].

Question: For `CCOC(=O)CNC(=O)CNC(=O)Cn1ccc2ccccc2c1=O`, which AC50 [1] is on record?
Answer: The AC50 was 1.64 µM [rising, full curve, poor fit].

Question: For `CC(=O)Nc1ccc(S(=O)(=O)N(c2cccnc2)S(=O)(=O)c2ccc(NC(C)=O)cc2)cc1`, which AC50 [1] is on record?
Answer: Its AC50 is 29.1 µM [rising, single point].

Question: Which AC50 [1] does the source give for `Cc1ccc(C(=O)c2cc([N+](=O)[O-])ccc2N2CCOCC2)c(C)c1` here?
Answer: The AC50 was 8.91 µM [rising, partial curve, poor fit].

Question: And the AC50 [2]?
Answer: Its AC50 is 7.94 µM [falling, partial curve, poor fit].

Question: Which AC50 [1] does the source give for `COC(=O)c1cc2oc3ccccc3c2n1Cc1ccccn1` here?
Answer: The AC50 was 6.51 µM [falling, single point].

Question: For `O=C(O)c1cccc2c1C(=O)N(Cc1ccccc1)C2`, which AC50 [1] is on record?
Answer: Its AC50 is 2.24 µM [rising, partial curve, poor fit].

Question: For `COC(=O)c1sccc1NC(=O)C1CC2CCC1C2` (stereo not given), which AC50 [1] is on record?
Answer: The AC50 was 20.6 µM [rising, single point].

Question: With `CO/N=C/c1ccc(Sc2ccccc2N)c([N+](=O)[O-])c1` as the compound, how does the AC50 [1] read?
Answer: Its AC50 is 10 µM [rising, partial curve].

Question: For `O=C(NC(=Nc1nc2ccccc2o1)NC(=O)c1ccccc1)c1ccccc1`, which AC50 [1] is on record?
Answer: The AC50 was 23.1 µM [falling, single point].

Question: For `COc1ccc(-c2nnc(SCc3nnc(-c4ccccc4)o3)n2C)cc1OC`, which AC50 [1] is on record?
Answer: The AC50 was 11.2 µM [rising, partial curve, poor fit].

Question: With `O=C(COc1ccccc1Br)Nc1ccc2c(c1)OCCCO2` as the compound, how does the AC50 [1] read?
Answer: The AC50 was 10 µM [falling, partial curve, poor fit].

Question: Which AC50 [1] does the source give for `CCOC(=O)CCCC(=O)Nc1ncnc2c1C(c1ccccc1)c1c(ccc3ccccc13)O2` (stereo not given) here?
Answer: Its AC50 is 20.6 µM [falling, single point].

Question: With `CC1=NN(c2ccccc2)C(=O)/C1=C\C=C1\N(C)c2ccccc2C1(C)C` as the compound, how does the AC50 [1] read?
Answer: Its AC50 is 2.06 µM [rising, partial curve, poor fit].

Question: For `CN(C)CCCN1CC(C(=O)O)CC1=O` (stereo not given), which AC50 [1] is on record?
Answer: The AC50 was 0.0316 µM [falling, full curve, poor fit].

Question: For `Cc1ccsc1/C=C1\SC(N2CC(C)OC(C)C2)=NC1=O` (stereo not given), which AC50 [1] is on record?
Answer: Its AC50 is 16.4 µM [rising, partial curve, poor fit].

Question: Which AC50 [1] does the source give for `CC(=O)c1ccc(N2CCN(S(=O)(=O)c3c(C)[nH]c(C)c3C(=O)N3CCCCC3)CC2)cc1` here?
Answer: The AC50 was 3.16 µM [rising, partial curve, poor fit].

Question: For `O=C(NN/C(=N/S(=O)(=O)c1ccc(Cl)cc1)c1ccccc1)c1ccc(O)cc1`, which AC50 [1] is on record?
Answer: Its AC50 is 14.6 µM [falling, partial curve].

Question: With `O=C(O)c1cc(N/N=C/c2cccc3ccccc23)ccc1Cl` as the compound, how does the AC50 [1] read?
Answer: The AC50 was 0.316 µM [falling, full curve, poor fit].

Question: With `Cc1ccccc1NC(=O)c1ccc(S(=O)(=O)N2CCCC2)cc1` as the compound, how does the AC50 [1] read?
Answer: The AC50 was 35.5 µM [falling, single point].

Question: For `O=C(C1CCC(CNS(=O)(=O)c2cccs2)CC1)N1CCN(c2ccc(Cl)cc2)CC1` (stereo not given), which AC50 [1] is on record?
Answer: Its AC50 is 6.31 µM [falling, single point].

Question: Which AC50 [1] does the source give for `CN(C)c1ccc(CNc2ncnc3sccc23)cc1` here?
Answer: Its AC50 is 0.447 µM [falling, full curve, poor fit].

Question: For `Cc1cc(N=Nc2c(O)c3ccccc3[nH]c2=O)ccc1N=Nc1ccc(C(=O)N(C)C)cc1`, which AC50 [1] is on record?
Answer: Its AC50 is 7.94 µM [falling, partial curve].

Question: Which AC50 [1] does the source give for `C/C(=N/NC(=O)c1ccc2c(c1)OCO2)c1cccc(NC(=O)C(C)(C)C)c1` here?
Answer: The AC50 was 10 µM [falling, partial curve].

Question: With `CC(C)c1ccc(NC(=O)c2cc(S(=O)(=O)NC3CCCCC3)ccc2F)cc1` as the compound, how does the AC50 [1] read?
Answer: Its AC50 is 35.5 µM [rising, single point].

Question: Which AC50 [1] does the source give for `Cc1cc(NC(=O)C(C)SCC(=O)OC(C)C(=O)Nc2ccc(F)cc2Cl)no1` (stereo not given) here?
Answer: Its AC50 is 13 µM [rising, partial curve, poor fit].

Question: Which AC50 [1] does the source give for `Cc1ccc(OCC(O)CN2CCOCC2)c(C)c1` (stereo not given) here?
Answer: Its AC50 is 3.55 µM [falling, partial curve, poor fit].

Question: For `CCCCn1nc(C(=O)NNC(=O)c2ccncc2)c2ccccc2c1=O`, which AC50 [1] is on record?
Answer: Its AC50 is 0.794 µM [rising, full curve, poor fit].

Question: Which AC50 [1] does the source give for `COc1ccc(Cl)cc1NC(=O)COC(=O)CC(C)(C)CC1=NS(=O)(=O)c2ccccc2N1` here?
Answer: Its AC50 is 3.55 µM [rising, single point].

Question: Which AC50 [1] does the source give for `COc1ccccc1CNC(=O)C(=O)NCCC1CCCCN1S(=O)(=O)c1ccc(C)cc1` (stereo not given) here?
Answer: The AC50 was 14.6 µM [falling, single point].

Question: For `COc1ccccc1Nc1nc(C)cc(=O)[nH]1`, which AC50 [1] is on record?
Answer: The AC50 was 3.26 µM [rising, partial curve, poor fit].

Question: Which AC50 [1] does the source give for `COc1cccc(CNC(=O)CCC2CCCN(C(=O)c3cccc4c(C)c(C)[nH]c34)C2)c1` (stereo not given) here?
Answer: The AC50 was 35.5 µM [falling, single point].

Question: With `O=C(CN1CCCCCC1)Nc1ccc(Br)cn1` as the compound, how does the AC50 [1] read?
Answer: The AC50 was 35.5 µM [falling, single point].

Question: For `CCCNC(=O)c1ccc(N2CCC3(CC2)CC(c2cccc(Br)c2)=NO3)c(NC(=O)c2cccc(OC)c2)c1`, which AC50 [1] is on record?
Answer: Its AC50 is 1.03 µM [rising, full curve, poor fit].

Question: Which AC50 [1] does the source give for `CCOC(=O)c1c(C)[nH]c(C)c1S(=O)(=O)N1CCCC(C(=O)Nc2ccc(OC)c(OC)c2)C1` (stereo not given) here?
Answer: Its AC50 is 2.82 µM [rising, full curve].

Question: With `CCOCCn1c(=O)c2c(nc3n2CC(C)CN3CCc2ccccc2)n(C)c1=O` (stereo not given) as the compound, how does the AC50 [1] read?
Answer: The AC50 was 3.55 µM [falling, partial curve, poor fit].

Question: Which AC50 [1] does the source give for `O=C1CC2(CCN(C(=O)COc3ccc(Cl)cc3)CC2)Oc2ccccc21` here?
Answer: Its AC50 is 0.82 µM [falling, partial curve, poor fit].

Question: With `N=C1SCC(=O)N1c1nc(-c2ccccc2)cs1` as the compound, how does the AC50 [1] read?
Answer: Its AC50 is 0.1 µM [rising, full curve, poor fit].

Question: With `Cc1ccc(-n2ncc3c2CC(C)(C)CC3NC(=O)CN2CCCC2=O)cc1` (stereo not given) as the compound, how does the AC50 [1] read?
Answer: Its AC50 is 20 µM [rising, single point].

Question: With `Cc1cccc(C(C#N)c2ccc(Cl)nn2)c1` (stereo not given) as the compound, how does the AC50 [1] read?
Answer: The AC50 was 12.6 µM [falling, single point].

Question: For `COc1ccccc1-c1oc2ccccc2c1-c1ccc2cc[nH]c2c1`, which AC50 [2] is on record?
Answer: The AC50 was 14.6 µM [rising, partial curve, poor fit].

Question: For `COc1ccc(OCC(=O)Nc2ncc3c(n2)CC(C)(C)CC3=O)cc1`, which AC50 [1] is on record?
Answer: Its AC50 is 35.5 µM [falling, single point].

Question: With `COCCCNC(=O)C[C@H]1C[C@H](C(=O)N2CCCCC2)[C@@]2(C)c3[nH]c4ccc(Cl)cc4c3CCN2C1=O` as the compound, how does the AC50 [2] read?
Answer: The AC50 was 32.6 µM [falling, partial curve, poor fit].

Question: Which AC50 [1] does the source give for `COc1ccc(C(C)NC(=O)c2ccccc2)cc1` (stereo not given) here?
Answer: Its AC50 is 0.00461 µM [falling, full curve, poor fit].

Question: For `CC1CCCN(S(=O)(=O)c2ccc(NC(=O)C3CCN(C(=O)c4ccco4)CC3)cc2)C1` (stereo not given), which AC50 [1] is on record?
Answer: Its AC50 is 6.31 µM [rising, single point].

Question: Which AC50 [1] does the source give for `CCN(c1ccccc1)S(=O)(=O)c1csc(C(N)=O)c1` here?
Answer: Its AC50 is 3.16 µM [rising, single point].

Question: Which AC50 [1] does the source give for `COc1ccccc1-c1nc2n(n1)C(c1ccc(Cl)cc1)C(C(N)=O)=C(C)N2` (stereo not given) here?
Answer: The AC50 was 10.3 µM [falling, partial curve].
